Measured values from paper PMC10849766.
These are yes or no findings as the source states them, for the method shown. Binding seen in cells or lysates may run through a third protein. Some results given as binding are weak or reduced against the parent protein; the word gives no strength.

Target: T1, Vascular endothelial (VE)-cadherin (human (endogenous in HBMECs)), P33151
T1 chain: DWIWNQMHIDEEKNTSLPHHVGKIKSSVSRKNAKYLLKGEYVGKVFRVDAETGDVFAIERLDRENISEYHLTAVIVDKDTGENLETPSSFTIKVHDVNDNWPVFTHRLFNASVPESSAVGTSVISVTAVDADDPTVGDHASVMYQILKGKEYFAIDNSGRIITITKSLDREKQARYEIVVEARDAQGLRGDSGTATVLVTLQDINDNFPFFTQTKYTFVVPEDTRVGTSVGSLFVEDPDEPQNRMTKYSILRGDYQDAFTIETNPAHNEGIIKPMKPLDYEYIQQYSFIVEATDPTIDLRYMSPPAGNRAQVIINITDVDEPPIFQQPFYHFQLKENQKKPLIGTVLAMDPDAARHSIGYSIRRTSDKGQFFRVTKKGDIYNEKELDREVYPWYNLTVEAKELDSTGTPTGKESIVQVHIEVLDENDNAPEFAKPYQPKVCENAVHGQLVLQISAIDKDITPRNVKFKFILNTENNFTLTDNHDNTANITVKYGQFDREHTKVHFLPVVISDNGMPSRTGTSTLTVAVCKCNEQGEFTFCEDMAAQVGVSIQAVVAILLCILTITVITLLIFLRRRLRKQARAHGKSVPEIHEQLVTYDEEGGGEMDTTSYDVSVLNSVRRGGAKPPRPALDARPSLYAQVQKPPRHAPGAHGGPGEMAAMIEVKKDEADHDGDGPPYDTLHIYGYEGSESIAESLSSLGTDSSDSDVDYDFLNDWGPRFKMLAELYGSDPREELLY
Assay: co-IP; IP with VE-cadherin antibody from HBMEC lysates, Western blot for α-catenin and β-catenin; cells under hypoxia plus IL-1β for 24 hours with rhTIMP2, rhAlaTIMP2 or PBS; also cells transfected with WT, Y419D or Y419A Src
Details: remark: other sources report otherwise

binding: binds
B1: β-catenin, P35222 1-781 (protein)
chain: MATQADLMELDMAMEPDRKAAVSHWQQQSYLDSGIHSGATTTAPSLSGKGNPEEEDVDTSQVLYEWEQGFSQSFTQEQVADIDGQYAMTRAQRVRAAMFPETLDEGMQIPSTQFDAAHPTNVQRLAEPSQMLKHAVVNLINYQDDAELATRAIPELTKLLNDEDQVVVNKAAVMVHQLSKKEASRHAIMRSPQMVSAIVRTMQNTNDVETARCTAGTLHNLSHHREGLLAIFKSGGIPALVKMLGSPVDSVLFYAITTLHNLLLHQEGAKMAVRLAGGLQKMVALLNKTNVKFLAITTDCLQILAYGNQESKLIILASGGPQALVNIMRTYTYEKLLWTTSRVLKVLSVCSSNKPAIVEAGGMQALGLHLTDPSQRLVQNCLWTLRNLSDAATKQEGMEGLLGTLVQLLGSDDINVVTCAAGILSNLTCNNYKNKMMVCQVGGIEALVRTVLRAGDREDITEPAICALRHLTSRHQEAEMAQNAVRLHYGLPVVVKLLHPPSHWPLIKATVGLIRNLALCPANHAPLREQGAIPRLVQLLVRAHQDTQRRTSMGGTQQQFVEGVRMEEIVEGCTGALHILARDVHNRIVIRGLNTIPLFVQLLYSPIENIQRVAAGVLCELAQDKEAAEAIEAEGATAPLTELLHSRNEGVATYAAAVLFRMSEDKPQDYKKRLSVELTSSLFRTEPMAWNETADLGLDIGAQGEPLGYRQDDPSYRSFHSGGYGQDALGMDPMMEHEMGGHHPGADYPVDGLPDLGHAQDLMDGLPPGDSNQLAWFDTDL
